Laboratory results: publication doi:10.1101/2025.01.13.632873
No constants are given. Whether binding was seen depends on the method and setting. In cells and extracts the contact can be indirect. Some binding calls cover weakened binding; strength is not graded here.

Chains of the proteins cited; added tags and fusions are not shown. Residues count along the entry.
UniProt Q8K2Q9: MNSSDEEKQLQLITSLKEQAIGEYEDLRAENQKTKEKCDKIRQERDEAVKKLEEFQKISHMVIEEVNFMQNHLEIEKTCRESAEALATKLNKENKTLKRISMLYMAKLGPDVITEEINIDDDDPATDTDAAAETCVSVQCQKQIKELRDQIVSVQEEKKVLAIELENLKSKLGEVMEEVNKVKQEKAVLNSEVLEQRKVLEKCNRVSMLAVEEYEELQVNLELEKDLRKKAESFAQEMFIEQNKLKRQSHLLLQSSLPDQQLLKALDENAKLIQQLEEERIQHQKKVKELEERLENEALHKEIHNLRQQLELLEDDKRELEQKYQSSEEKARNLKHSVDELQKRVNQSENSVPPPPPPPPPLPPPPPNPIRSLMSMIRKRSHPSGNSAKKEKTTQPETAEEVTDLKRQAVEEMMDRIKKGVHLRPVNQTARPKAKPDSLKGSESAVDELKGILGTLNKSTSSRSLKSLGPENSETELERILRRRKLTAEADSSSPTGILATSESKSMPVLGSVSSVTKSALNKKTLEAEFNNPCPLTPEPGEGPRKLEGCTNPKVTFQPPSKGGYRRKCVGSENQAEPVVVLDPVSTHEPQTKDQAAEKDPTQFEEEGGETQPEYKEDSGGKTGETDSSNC
UniProt P11627, residues 20-1260: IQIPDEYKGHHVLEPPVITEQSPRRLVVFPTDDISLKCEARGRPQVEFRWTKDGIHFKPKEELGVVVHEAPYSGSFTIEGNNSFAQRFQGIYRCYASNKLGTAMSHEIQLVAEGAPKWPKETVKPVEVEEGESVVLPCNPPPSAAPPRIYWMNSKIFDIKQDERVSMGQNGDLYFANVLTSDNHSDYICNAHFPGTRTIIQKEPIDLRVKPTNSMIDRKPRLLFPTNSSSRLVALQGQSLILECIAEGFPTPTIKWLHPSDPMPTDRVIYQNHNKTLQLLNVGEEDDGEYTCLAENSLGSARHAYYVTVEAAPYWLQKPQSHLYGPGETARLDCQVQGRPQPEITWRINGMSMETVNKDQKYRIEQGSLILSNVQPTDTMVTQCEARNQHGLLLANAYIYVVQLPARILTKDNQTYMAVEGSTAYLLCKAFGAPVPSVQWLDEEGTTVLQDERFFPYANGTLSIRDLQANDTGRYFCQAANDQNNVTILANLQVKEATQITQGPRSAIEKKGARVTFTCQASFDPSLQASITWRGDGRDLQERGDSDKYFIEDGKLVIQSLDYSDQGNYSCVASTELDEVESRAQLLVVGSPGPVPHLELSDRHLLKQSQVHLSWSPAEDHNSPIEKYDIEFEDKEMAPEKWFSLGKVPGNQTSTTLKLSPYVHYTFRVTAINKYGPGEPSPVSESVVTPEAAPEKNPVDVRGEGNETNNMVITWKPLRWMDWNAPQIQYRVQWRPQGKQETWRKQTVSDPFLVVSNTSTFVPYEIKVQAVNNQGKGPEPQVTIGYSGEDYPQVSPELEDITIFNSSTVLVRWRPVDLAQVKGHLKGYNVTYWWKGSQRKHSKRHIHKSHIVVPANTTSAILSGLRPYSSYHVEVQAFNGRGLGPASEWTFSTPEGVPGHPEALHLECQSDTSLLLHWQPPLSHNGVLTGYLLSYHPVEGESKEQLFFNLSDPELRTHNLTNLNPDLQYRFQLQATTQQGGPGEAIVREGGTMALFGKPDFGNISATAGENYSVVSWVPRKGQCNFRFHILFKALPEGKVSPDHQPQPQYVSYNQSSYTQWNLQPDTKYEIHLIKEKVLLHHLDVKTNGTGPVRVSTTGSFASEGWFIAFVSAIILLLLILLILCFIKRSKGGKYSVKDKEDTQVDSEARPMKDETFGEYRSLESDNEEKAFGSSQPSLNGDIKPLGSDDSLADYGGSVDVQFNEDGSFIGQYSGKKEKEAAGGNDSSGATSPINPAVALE
UniProt Q60598: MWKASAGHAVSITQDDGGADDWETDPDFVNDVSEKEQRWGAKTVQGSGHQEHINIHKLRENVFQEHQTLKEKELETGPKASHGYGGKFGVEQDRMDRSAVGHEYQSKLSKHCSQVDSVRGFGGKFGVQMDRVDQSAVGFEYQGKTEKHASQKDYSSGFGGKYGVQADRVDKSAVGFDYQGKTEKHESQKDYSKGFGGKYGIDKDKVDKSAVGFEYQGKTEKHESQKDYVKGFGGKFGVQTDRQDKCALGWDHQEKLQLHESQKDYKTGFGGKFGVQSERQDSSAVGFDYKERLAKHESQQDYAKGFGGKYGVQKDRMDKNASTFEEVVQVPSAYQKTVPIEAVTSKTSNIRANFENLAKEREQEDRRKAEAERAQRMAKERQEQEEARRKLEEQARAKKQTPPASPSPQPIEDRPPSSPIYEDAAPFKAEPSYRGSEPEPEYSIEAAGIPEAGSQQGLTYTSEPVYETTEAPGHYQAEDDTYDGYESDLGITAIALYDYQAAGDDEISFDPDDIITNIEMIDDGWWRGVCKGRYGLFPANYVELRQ

Molecular target: shootin1b (mouse (endogenous in bone marrow-derived dendritic cells)) (UniProt Q8K2Q9)
Assay: co-IP

Row | Substance | binding
1 | cell adhesion molecule L1 (from UniProt P11627 20-1260) | binds
2 | cortactin (from UniProt Q60598 1-546) | binds
